{
  "sequences": {"note": "Sequences of proteins named here, by UniProt entry; tags and fusion partners are left off.", "UniProt P31750": "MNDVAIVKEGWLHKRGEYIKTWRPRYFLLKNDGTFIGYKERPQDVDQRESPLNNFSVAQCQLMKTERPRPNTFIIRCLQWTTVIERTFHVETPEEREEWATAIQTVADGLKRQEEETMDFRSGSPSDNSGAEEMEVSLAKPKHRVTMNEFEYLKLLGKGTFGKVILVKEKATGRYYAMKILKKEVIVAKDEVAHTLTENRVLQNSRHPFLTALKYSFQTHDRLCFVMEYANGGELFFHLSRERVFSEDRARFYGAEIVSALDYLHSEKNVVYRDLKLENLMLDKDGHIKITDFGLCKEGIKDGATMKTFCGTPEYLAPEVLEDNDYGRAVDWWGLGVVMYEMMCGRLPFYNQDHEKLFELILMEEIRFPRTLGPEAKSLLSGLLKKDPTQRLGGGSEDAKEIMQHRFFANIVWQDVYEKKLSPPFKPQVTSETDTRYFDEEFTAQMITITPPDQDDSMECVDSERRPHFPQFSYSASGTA"},
  "source": "patent US20080096237A1",
  "binders": {"B1": {"name": "transgenic H11 kinase carrying a hemagglutinin tag (cardiac-specific transgenic mouse) (enzyme)", "chain": "MADGQMPFSCHYPSRLRRDPFRDSPLSSRLLDDGFGMDPFPDDLTASWPDWALPRLSSAWPGTLRSGMVPRGPTATARFGVPAEGRTPPPFPGEPWKVCVNVHSFKPEELMVKTKDGYVEVSGKHEEKQQEGGIVSKNFTKKIQLPAEVDPVTVFASLSPEGLLIIEAPQVPPYSTFGESSFNNELPQDSQEVTCT"}},
  "molecular_target": "Akt (in mouse heart extracts) (mouse) (UniProt P31750)",
  "experiment": "co-immunoprecipitation with the hemagglutinin antibody",
  "note": "Results are given in words; binding and its absence hold for the method and conditions named. In cells and extracts the contact can be indirect. Some entries that bind do so weakly or less than the wild type. Where a sequence is shown, tags or fusion partners need not be part of it.",
  "data": [
    {"binder": "B1", "values": [
      {"measurement": "binding", "value": "binds"}
    ]}
  ]
}
